## Results of single-concentration screens

By UniProt entry, the sequences of proteins in these tests, tags left out. Residues count along the entry.
UniProt P9WPC5, whole entry: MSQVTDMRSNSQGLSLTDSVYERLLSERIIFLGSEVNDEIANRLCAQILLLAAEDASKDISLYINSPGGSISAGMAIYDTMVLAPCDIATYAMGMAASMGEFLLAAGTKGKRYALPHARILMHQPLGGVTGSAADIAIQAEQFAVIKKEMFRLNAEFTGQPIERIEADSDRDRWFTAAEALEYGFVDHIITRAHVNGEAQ
UniProt P9WPC3, whole entry partner: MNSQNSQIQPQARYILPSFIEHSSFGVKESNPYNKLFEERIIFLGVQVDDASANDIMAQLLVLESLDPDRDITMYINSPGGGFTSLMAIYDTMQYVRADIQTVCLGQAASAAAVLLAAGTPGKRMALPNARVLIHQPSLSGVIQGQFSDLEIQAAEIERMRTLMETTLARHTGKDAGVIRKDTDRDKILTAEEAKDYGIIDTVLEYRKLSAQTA
UniProt Q4DA54, 1-478: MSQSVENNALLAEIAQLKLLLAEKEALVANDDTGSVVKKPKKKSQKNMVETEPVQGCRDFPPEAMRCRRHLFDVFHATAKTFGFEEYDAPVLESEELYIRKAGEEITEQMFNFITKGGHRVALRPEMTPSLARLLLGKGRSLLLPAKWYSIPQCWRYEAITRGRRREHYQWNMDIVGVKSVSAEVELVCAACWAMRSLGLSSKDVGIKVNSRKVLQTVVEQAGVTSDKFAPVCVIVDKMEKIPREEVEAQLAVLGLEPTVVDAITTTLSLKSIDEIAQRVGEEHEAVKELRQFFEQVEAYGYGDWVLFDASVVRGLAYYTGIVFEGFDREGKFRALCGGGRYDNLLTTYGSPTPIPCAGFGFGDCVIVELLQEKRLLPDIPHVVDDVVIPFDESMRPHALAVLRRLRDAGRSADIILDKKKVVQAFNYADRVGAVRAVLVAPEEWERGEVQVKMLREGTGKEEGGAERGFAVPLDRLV
UniProt Q8IDJ8, 1-583: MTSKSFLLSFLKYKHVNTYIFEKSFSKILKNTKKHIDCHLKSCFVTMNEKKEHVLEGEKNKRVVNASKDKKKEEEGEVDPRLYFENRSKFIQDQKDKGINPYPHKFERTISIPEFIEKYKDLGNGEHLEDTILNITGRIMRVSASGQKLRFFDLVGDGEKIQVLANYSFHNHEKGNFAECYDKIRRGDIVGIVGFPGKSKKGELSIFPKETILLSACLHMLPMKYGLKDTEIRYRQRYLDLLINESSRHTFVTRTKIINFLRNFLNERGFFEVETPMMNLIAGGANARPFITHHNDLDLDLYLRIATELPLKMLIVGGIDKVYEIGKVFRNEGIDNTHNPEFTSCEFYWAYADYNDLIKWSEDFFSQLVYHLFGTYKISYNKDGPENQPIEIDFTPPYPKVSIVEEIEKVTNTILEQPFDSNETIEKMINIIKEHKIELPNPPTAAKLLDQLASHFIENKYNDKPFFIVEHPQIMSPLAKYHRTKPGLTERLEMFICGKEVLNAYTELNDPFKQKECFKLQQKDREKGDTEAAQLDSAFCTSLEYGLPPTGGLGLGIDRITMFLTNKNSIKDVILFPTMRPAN
UniProt I6X8D2, whole entry: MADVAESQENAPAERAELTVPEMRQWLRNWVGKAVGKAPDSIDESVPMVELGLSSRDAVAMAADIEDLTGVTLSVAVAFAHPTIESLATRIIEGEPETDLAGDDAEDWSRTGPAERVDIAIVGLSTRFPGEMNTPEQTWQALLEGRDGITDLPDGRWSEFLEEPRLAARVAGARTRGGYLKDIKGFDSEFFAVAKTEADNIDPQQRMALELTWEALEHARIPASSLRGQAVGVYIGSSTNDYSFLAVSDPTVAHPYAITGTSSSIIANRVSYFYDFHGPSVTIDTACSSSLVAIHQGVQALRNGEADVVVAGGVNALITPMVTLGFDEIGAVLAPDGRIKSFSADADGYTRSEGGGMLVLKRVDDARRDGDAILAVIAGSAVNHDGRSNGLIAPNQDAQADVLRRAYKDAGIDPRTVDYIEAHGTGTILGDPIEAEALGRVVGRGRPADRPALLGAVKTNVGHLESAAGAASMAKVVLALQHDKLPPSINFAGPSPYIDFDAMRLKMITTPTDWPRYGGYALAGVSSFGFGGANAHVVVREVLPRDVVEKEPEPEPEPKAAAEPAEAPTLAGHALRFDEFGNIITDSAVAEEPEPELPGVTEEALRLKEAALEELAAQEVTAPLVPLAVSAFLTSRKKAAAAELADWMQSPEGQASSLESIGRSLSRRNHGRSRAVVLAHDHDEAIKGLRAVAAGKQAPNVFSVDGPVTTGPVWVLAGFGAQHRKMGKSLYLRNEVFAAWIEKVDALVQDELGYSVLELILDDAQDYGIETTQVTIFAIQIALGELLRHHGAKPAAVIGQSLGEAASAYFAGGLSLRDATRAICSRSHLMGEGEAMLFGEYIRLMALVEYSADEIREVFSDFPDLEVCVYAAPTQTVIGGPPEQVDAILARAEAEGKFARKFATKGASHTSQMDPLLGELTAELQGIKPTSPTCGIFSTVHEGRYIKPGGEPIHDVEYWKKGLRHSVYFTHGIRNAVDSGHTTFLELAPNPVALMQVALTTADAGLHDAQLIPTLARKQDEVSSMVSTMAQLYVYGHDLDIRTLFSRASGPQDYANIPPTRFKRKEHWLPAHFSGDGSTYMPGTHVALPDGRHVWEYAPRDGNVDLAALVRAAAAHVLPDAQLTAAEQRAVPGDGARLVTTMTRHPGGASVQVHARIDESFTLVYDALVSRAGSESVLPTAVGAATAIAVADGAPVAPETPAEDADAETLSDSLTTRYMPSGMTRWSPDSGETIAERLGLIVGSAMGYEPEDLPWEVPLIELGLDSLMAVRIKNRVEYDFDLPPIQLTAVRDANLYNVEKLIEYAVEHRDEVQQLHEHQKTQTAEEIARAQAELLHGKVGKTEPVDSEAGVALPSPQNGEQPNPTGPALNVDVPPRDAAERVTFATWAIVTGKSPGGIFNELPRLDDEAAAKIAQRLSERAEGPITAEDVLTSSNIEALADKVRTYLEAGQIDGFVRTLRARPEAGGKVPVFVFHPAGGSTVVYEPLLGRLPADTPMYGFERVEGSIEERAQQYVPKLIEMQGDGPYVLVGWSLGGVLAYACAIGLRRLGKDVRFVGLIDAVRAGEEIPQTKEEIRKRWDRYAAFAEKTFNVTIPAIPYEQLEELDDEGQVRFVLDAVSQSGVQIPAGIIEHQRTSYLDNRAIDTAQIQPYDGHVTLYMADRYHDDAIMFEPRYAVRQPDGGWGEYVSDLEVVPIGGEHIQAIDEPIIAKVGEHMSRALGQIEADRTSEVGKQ

ClpP1P2: 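ClpP1P2, Mycobacterium tuberculosis (UniProt P9WPC5 and UniProt P9WPC3). Protease assay of ClpP1P2, read by the AMC dye that it sets free. Tested at 50 µM. Higher reads as stronger inhibition, judged from the few compounds that gave an IC50. Most other retested compounds had strongly negative values. About 69,000 compounds were tested under these conditions; 0.015% (about 10) showed 50% or more at least once.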
TcHisRS: 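Enzyme assay of histidyl-tRNA synthetase; the read-out is not stated. Target: Histidine-tRNA ligase, Trypanosoma cruzi CL Brener (UniProt Q4DA54). Tested at 30 µM. Direction is inferred from retests: higher values go with stronger inhibition. About 69,000 compounds were tested under these conditions; 0.045% (about 31) showed 50% or more at least once.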
PfKRS1: 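Lysine-tRNA ligase, Plasmodium falciparum 3D7 (UniProt Q8IDJ8). Enzyme assay of the cytosolic lysyl-tRNA synthetase in 384-well plates, read by luminescence. Compounds at 30 µM. Higher reads as stronger inhibition, judged from the few compounds that gave an IC50. Size under these conditions: about 69,000 compounds, about 49 of them at 50% or above in at least one test.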
Pks13 thioesterase: 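Enzyme assay of the thioesterase domain of polyketide synthase 13; the read-out is not stated. Target: Polyketide synthase Pks13, Mycobacterium tuberculosis (UniProt I6X8D2). Tested at 30 µM. The record gives no direction; the compounds picked for IC50 retests had high values, so higher reads as stronger inhibition. About 67,000 compounds were tested under these conditions; 0.46% (about 300) showed 50% or more at least once.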

The filed quantity is “Percent Effect” (%). The record does not define 0% and 100%; most values in the screen are far below 50% and negative numbers occur (in some assays of this library far below -100). The compounds are a random part of those screened.

{"structure": "CC(C)CN1C[C@H]2C[C@H](C(=O)NCc3cccnc3)[C@@H](C1)O2", "ClpP1P2": -5.77, "TcHisRS": 6.135, "PfKRS1": -2.209, "Pks13 thioesterase": 5.054}
{"structure": "O=C(O)c1cccn1-c1ccc2c(c1)OCCO2", "ClpP1P2": 2.921, "TcHisRS": 13, "PfKRS1": 1.362, "Pks13 thioesterase": -10.6}
{"structure": "N#CC1(NC(=O)COc2cc(Cl)cc(Cl)c2)CCOCC1", "ClpP1P2": 3.389, "TcHisRS": 8.929, "PfKRS1": 4.886, "Pks13 thioesterase": -22.92}
{"structure": "CCn1ccnc1CN1CCN(CCc2ccccn2)CC1C", "stereo": "stereo not given", "ClpP1P2": -10.84, "TcHisRS": 5.83, "PfKRS1": 6.367, "Pks13 thioesterase": -14.19}
{"structure": "Cc1c[nH]c(CN(C)C(=O)C2CC(=O)N(Cc3ccncc3)C2)n1", "stereo": "stereo not given", "ClpP1P2": 8.854, "TcHisRS": 5.932, "PfKRS1": -3.145, "Pks13 thioesterase": -9.795}
{"structure": "Cc1nc(CNc2nc(-c3ccco3)nc3c2CCNCC3)n[nH]1", "ClpP1P2": 0.3318, "TcHisRS": 7.937, "PfKRS1": 3.203, "Pks13 thioesterase": -8.883}
{"structure": "O=C1CC2(CCN(CCCF)CC2)CN1Cc1cc(F)cc(F)c1", "ClpP1P2": 6.645, "TcHisRS": 1.508, "PfKRS1": 0.2675, "Pks13 thioesterase": 15.26}
{"structure": "COCC(C)(O)CNC(=O)COc1ccccc1OC", "stereo": "stereo not given", "ClpP1P2": -12.4, "TcHisRS": 4.959, "PfKRS1": 5.691, "Pks13 thioesterase": -9.027}
{"structure": "CCN1CC(COC(=O)c2ccc(Br)cc2F)CC1=O", "stereo": "stereo not given", "ClpP1P2": -0.7921, "TcHisRS": 9.392, "PfKRS1": 0.01107, "Pks13 thioesterase": -28.15}
{"structure": "COCc1nc(CNc2cccc(-c3csc(C)n3)c2)cs1", "ClpP1P2": -10.41, "TcHisRS": 0, "PfKRS1": -2.363, "Pks13 thioesterase": -5.237}
{"structure": "CC[C@H]1COCCN1C(=O)c1ccc(OC)c(N2CCOCC2)c1", "ClpP1P2": 4.807, "TcHisRS": 1.734, "PfKRS1": 10.84, "Pks13 thioesterase": 10.04}
{"structure": "COCCn1c2c(ccc1=O)CCN(C(=O)NC1CC1)CC2", "ClpP1P2": -3.274, "TcHisRS": 5.028, "PfKRS1": 3.68, "Pks13 thioesterase": 11.15}
{"structure": "COc1cc(Cl)c(C)cc1NC(=O)CNc1ccn(CC(N)=O)n1", "ClpP1P2": 8.79, "TcHisRS": 1.724, "PfKRS1": 3.037, "Pks13 thioesterase": 44.38}
{"structure": "O=S1(=O)CCC(n2cc(CNCC3(c4ccccc4)CC3)cn2)C1", "stereo": "stereo not given", "ClpP1P2": 1.52, "TcHisRS": 6.494, "PfKRS1": -0.03615, "Pks13 thioesterase": 13.32}
{"structure": "COc1ccccc1C(=O)Nc1c(F)c(C(=O)NCCC(C)C)nn1C", "ClpP1P2": 11.04, "TcHisRS": 4.95, "PfKRS1": -0.1373, "Pks13 thioesterase": -2.889}
{"structure": "Cc1cc(NC(=O)c2ccc(Br)cc2F)n(C)n1", "ClpP1P2": 5.425, "TcHisRS": 2.762, "PfKRS1": -4.903, "Pks13 thioesterase": 4.859}
{"structure": "CC(C)(C)n1cc(C(=O)N2CCN(Cc3ccccc3F)CC2)cn1", "ClpP1P2": 9.688, "TcHisRS": 1.901, "PfKRS1": 2.074, "Pks13 thioesterase": -15}
{"structure": "CC(C)c1cc(C(=O)N2CCOC3(CCNCC3)C2)no1", "ClpP1P2": -0.5149, "TcHisRS": 1.604, "PfKRS1": 2.497, "Pks13 thioesterase": -28.53}
{"structure": "CN(Cc1ccc(N2CCCCC2)cc1)Cc1noc(C(C)(C)C)n1", "ClpP1P2": -4.26, "TcHisRS": -2.51, "PfKRS1": 1.707, "Pks13 thioesterase": 85.24}
{"structure": "CCNCCc1nc2cc(F)ccc2[nH]1", "ClpP1P2": -9.156, "TcHisRS": 9.195, "PfKRS1": 4.336, "Pks13 thioesterase": 13.01}
{"structure": "CC(C)c1ocnc1C(=O)N1CCC2(CC1)OCCO2", "ClpP1P2": -5.02, "TcHisRS": -1.97, "PfKRS1": 0, "Pks13 thioesterase": -15.95}

2 of the entries, repeated:

{"structure": "CN(Cc1ccc(N2CCCCC2)cc1)Cc1noc(C(C)(C)C)n1", "ClpP1P2": -4.26, "TcHisRS": -2.51, "PfKRS1": 1.707, "Pks13 thioesterase": 85.24}
{"structure": "Cc1nc(CNc2nc(-c3ccco3)nc3c2CCNCC3)n[nH]1", "ClpP1P2": 0.3318, "TcHisRS": 7.937, "PfKRS1": 3.203, "Pks13 thioesterase": -8.883}

From ChEMBL document CHEMBL3988442, “University of Dundee, Small-Polar-MMV Screening Library” (2021).